Experimental data reported in PubChem BioAssay AID1794845 (National Center for Advancing Translational Sciences (NCATS), 2023).
The whole screen tested about 6,900 compounds, of which fewer than 10 were called active. The call rests on the fitted dose curve; in most records, active means well fitted curve in the direction sought with a large enough effect; inconclusive means small, poorly fitted or top-dose-only effect, or another doubt; inactive means no such curve, though single readings can be large or run the other way. Some of the results follow.
Further: % of control where 0% means no effect.

Sequences of proteins named here, by UniProt entry; tags and fusion partners are left off. A change or cut given only in a name is not applied to a line headed by its entry.
UniProt C7C422: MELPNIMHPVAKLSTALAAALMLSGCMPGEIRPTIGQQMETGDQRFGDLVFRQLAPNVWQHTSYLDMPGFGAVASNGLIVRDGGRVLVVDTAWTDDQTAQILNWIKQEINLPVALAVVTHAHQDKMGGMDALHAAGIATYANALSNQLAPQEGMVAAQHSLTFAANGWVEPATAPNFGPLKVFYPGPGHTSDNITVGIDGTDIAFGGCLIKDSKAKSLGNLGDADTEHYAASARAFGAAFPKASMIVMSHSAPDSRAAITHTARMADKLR

What follows are molecules tested against Metallo-beta-lactamase type 2 (Klebsiella pneumoniae) (UniProt C7C422) (assay: qHTS to identify inhibitors of the New Delhi Metallo-beta-lactamase (NDM): primary screen against the NCATS Gemini Collection). Details: NDM-1 enzyme, meropenem hydrolysis, absorbance 300 nm; at 38.4 µM (top of the series) unless noted.
In short: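 NDM-1 at 2 nM final in 50 mM HEPES pH 7.0, 1 uM ZnSO4, 0.01% Tween20, preincubated >30 min with compound. Meropenem 50 uM final added; absorbance at 300 nm after 30 min.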
For `O=C1NCCCN1C1CCN(Cc2ccncc2)CC1`, the activity % (negative = inhibition) was inactive: -0.852% [at 57.5 µM]. For `Cc1nn(-c2ccccc2)c2c1C(C)N(C1CCN(C(=O)NC3CCCC3)C1)C2=O` (stereo unspecified), the activity % (negative = inhibition) was inactive: 43.7%. For `O[C@@H]1C[C@@H](c2nc(-c3ccncc3)no2)N(Cc2cccs2)C1`, the activity % (negative = inhibition) was inactive: 5.58% [at 57.5 µM]. `COc1ccc(OC2CCN(C3CCCC3)CC2)c(C(=O)NCCCN2CCCC2=O)c1` was tested, and the activity % (negative = inhibition) was inactive: -0.186%. For `NC(c1ccccc1)c1nnc2n1CCN(C(=O)N1CCOCC1)C2` (stereo unspecified), the activity % (negative = inhibition) was inactive: -0.26%. For `COc1ccc(C(=O)Nc2nc3c(s2)C[C@@H]2[C@](C)(CO)[C@H](O)CC[C@@]2(C)[C@@H]3CC(=O)NC2CCCC2)cc1`, the activity % (negative = inhibition) was inactive: 5.73%. For `Cc1occc1C(=O)N1CC(F)(F)C[C@H]1c1nnc(C2CC2)o1`, the activity % (negative = inhibition) was inactive: 1.73%. For `Clc1ccccc1C1(c2ccnc(C3CC3)n2)CCNCC1`, the activity % (negative = inhibition) was inactive: 0.0078%. `CN(C)c1ccc(CN2CCC(N3CCCCCC3=O)CC2)cc1` was tested, and the activity % (negative = inhibition) was inactive: 1.4% [at 57.5 µM]. With `CN(C)Cc1cc(C[C@@H]2CC[C@H](O)[C@@H](CNC(=O)N3CCOCC3)O2)no1` the activity % (negative = inhibition) was inactive: 0.0319% [at 57.5 µM]. For `CCCN(C/C=C/c1ccccc1)C(=O)c1cccc(OCC(N)=O)c1`, the activity % (negative = inhibition) was inactive: 2.07%. `Cn1c(=O)[nH]cc(CC(=O)N2C[C@H](C3CC3)[C@@H](N)C2)c1=O` was tested, and the activity % (negative = inhibition) was inactive: 3.75%. `CC(C)c1nc2c(c(-c3ccc(O)cc3)n1)CCN(CC1CCCCC1)CC2` was tested, and the activity % (negative = inhibition) was inactive: 3.35%. In the case of `Cc1ccc(N2CC(c3noc(-c4ccc5ccccc5n4)n3)CC2=O)cc1` (stereo unspecified), the activity % (negative = inhibition) is reported as inactive: -0.844%. For `COCCn1ncc(N2CCC(C(=O)N3CCN(C(C)C)CC3)C2)cc1=O` (stereo unspecified), the activity % (negative = inhibition) was inactive: 7.56%. `CCOc1ccccc1NC(=O)CN1C(=O)C(c2ccccc2)=NC12CCCCCC2` was tested, and the activity % (negative = inhibition) was inactive: 2.79%. With `O=C(NCc1ccc(N2CCOCC2)cc1)c1cc[nH]c1C1CCCNC1` (stereo unspecified) the activity % (negative = inhibition) was inactive: 4.79%. With `Cn1ccnc1CN1C(=O)CO[C@H]2CN(C(=O)c3cnccn3)C[C@H]21` the activity % (negative = inhibition) was inactive: 1.15% [at 57.5 µM]. `COc1c(F)cccc1C(=O)N1CCc2onc(-c3ccccc3F)c2C1` was tested, and the activity % (negative = inhibition) was inactive: 14.1%. For `O=C(C1CCC1)N1CCC2(CC1)CC(N1CCCCC1)CCO2` (stereo unspecified), the activity % (negative = inhibition) was inactive: 6.15%. With `Cc1ccc(-c2cn(C3CN(C(=O)C4CCC4)C3)nn2)cc1` the activity % (negative = inhibition) was inactive: 7.55%. With `CC(=O)N1CCC(C(=O)N2CCn3nc(Cc4ccccc4)cc3C2)CC1` the activity % (negative = inhibition) was inactive: -2.11%. For `CC(c1ccc(-c2cc(N)ncn2)cc1)N1CCCCC1` (stereo unspecified), the activity % (negative = inhibition) was inactive: -5.09%. For `O=C(c1cccnc1)N1CCN(c2nnc3ccc(Cl)cn23)CC1`, the activity % (negative = inhibition) was inactive: 0.878%. For `NCCc1noc(-c2ccccc2)n1`, the activity % (negative = inhibition) was inactive: -0.994%. In the case of `COCCN1CC(C(=O)N2CCN(c3ncccc3C#N)CC2)CCC1=O` (stereo unspecified), the activity % (negative = inhibition) is reported as inactive: -3.42%. `COc1ccc(-c2nc(Cn3c(-c4ccc(Cl)cc4)nc(C)c(CCO)c3=O)c(C)o2)cc1` was tested, and the activity % (negative = inhibition) was inactive: 7.93%. With `Cc1ccc(CN2C(=O)NC3(CCN(C(=O)Cc4cccc(F)c4)CC3)C2=O)cc1` the activity % (negative = inhibition) was inactive: -5.3%. `O=C(NCc1nc(-c2ncccn2)no1)C1CC2(CCNCC2)CN1` (stereo unspecified) was tested, and the activity % (negative = inhibition) was inactive: -0.57%. For `O=C(N[C@@H]1CN(C2CCOCC2)CC[C@@H]1CO)c1ccccc1`, the activity % (negative = inhibition) was inactive: -2.7%. In the case of `Cc1csc(S(=O)(=O)N2CC[C@@H]3[C@@H](CCC(=O)N3CCN)C2)c1`, the activity % (negative = inhibition) is reported as inactive: 1.68%. For `C1CCC(COCCc2noc(C3CNC3)n2)C1`, the activity % (negative = inhibition) was inactive: 11.4%. For `CCC(CNc1nc(CCN)nc2ccccc12)N1CCN(C)CC1` (stereo unspecified), the activity % (negative = inhibition) was inactive: 2.06%. For `O=S(=O)(NCc1cccnc1Oc1ccc(F)cc1F)c1cccnc1`, the activity % (negative = inhibition) was inactive: 1.43%. In the case of `Cc1cccc(C(=O)N2CC(Oc3ccc(-c4noc(C5CCOCC5)n4)cc3)C2)c1`, the activity % (negative = inhibition) is reported as inactive: 3.06%. With `CCN1c2cc(C(=O)N3CCN(c4cccc(C)c4)CC3)ccc2C(=O)N2CCCCC21` (stereo unspecified) the activity % (negative = inhibition) was inactive: 1.51%. With `CC[C@H]1CN(S(C)(=O)=O)CC[C@H]1CC(=O)NCc1ccco1` the activity % (negative = inhibition) was inactive: -1.85% [at 57.5 µM]. In the case of `Cc1ccc(N2C(=O)N[C@@H]3CCN(S(=O)(=O)c4ccc(Cl)cc4)[C@@H]3C2=O)cc1`, the activity % (negative = inhibition) is reported as inactive: 11.7% [at 57.5 µM]. For `O=C(c1ccc(Cl)nc1)N1CCC(C(=O)N2CCC(N3CCCC3=O)CC2)CC1`, the activity % (negative = inhibition) was inactive: 0.0669%. With `CN(C)Cc1nnc(C2CCN(C(=O)CCNS(C)(=O)=O)CC2)n1C` the activity % (negative = inhibition) was inactive: 3.36%. `COCc1cccc(-c2n[nH]c3c2CC(=O)N(c2ccccc2)C3)c1` was tested, and the activity % (negative = inhibition) was inactive: 0.268% [at 57.5 µM]. For `COCCOc1ccc2c(n1)CCN(C(=O)c1ccc(OC)c(OC)c1)C2`, the activity % (negative = inhibition) was inactive: 17.7%. For `CCc1cccc(-n2nnnc2N2CCN(C(=O)NC(C)c3ccccc3)CC2)c1` (stereo unspecified), the activity % (negative = inhibition) was inactive: -2.03%. In the case of `Cc1ccccc1N1CCN(C(=O)c2nnn3c2COC(c2ccc(Cl)cc2)C3)CC1` (stereo unspecified), the activity % (negative = inhibition) is reported as inactive: 12.9%. For `Cc1nsc(NC(=O)N2CCC(CO)CC2)n1`, the activity % (negative = inhibition) was inactive: 3.13%. `Cn1nccc1CN1CCCC2(COc3ccccc3C(=O)N2)C1` (stereo unspecified) was tested, and the activity % (negative = inhibition) was inactive: 15% [at 57.5 µM]. In the case of `Cn1ccnc1C(=O)C1CCCN(Cc2cc(=O)c3cccc(Cl)c3[nH]2)C1` (stereo unspecified), the activity % (negative = inhibition) is reported as inactive: 6.2%. With `O=C([C@@H]1COCC(=O)N1Cc1ccccc1)N1CCN(Cc2ccc3c(c2)OCO3)CC1` the activity % (negative = inhibition) was inactive: 9.99%. With `O=C(COc1ccc(F)cc1)N1CCCCC1c1nc(-c2cnccn2)n[nH]1` (stereo unspecified) the activity % (negative = inhibition) was inactive: 10.6%. `COCC(=O)N[C@@H]1CN(Cc2cccn2C)C[C@H]1CO` was tested, and the activity % (negative = inhibition) was inactive: 31%. For `O=C([C@@H]1C[C@H](F)CN1C(=O)NC1CCCCC1)N1CCc2ccccc2C1`, the activity % (negative = inhibition) was inactive: 8.12%. For `CN1C(=O)C(c2ccccc2)CC12CCN(S(=O)(=O)N(C)C)CC2` (stereo unspecified), the activity % (negative = inhibition) was inactive: 13%. With `CCOc1ccccc1N1CCN(Cc2ccc(=O)n(CC)c2)CC1` the activity % (negative = inhibition) was inactive: 10.2%. For `C[C@H]1CCCN1C(=O)c1nnc(COc2ccc(F)c(F)c2)n1-c1cccnc1`, the activity % (negative = inhibition) was inactive: -1.14% [at 57.5 µM]. For `COC[C@H]1C[C@@H](NC(=O)c2cc(C)oc2C(F)(F)F)[C@H](O)[C@@H]1O`, the activity % (negative = inhibition) was inactive: -1.03% [at 57.5 µM]. With `O=C(Nc1ccccc1)N[C@H]1[C@H](O)[C@@H](N2CCCCC2)[C@@H]2OC[C@H]1O2` the activity % (negative = inhibition) was inactive: -1.96% [at 57.5 µM]. `CN(C)S(=O)(=O)N1[C@@H]2CC[C@H]1CC(NC(=O)c1ccc(F)cc1)C2` (stereo partly specified) was tested, and the activity % (negative = inhibition) was inactive: -2.71%. For `O=S(=O)(c1ccccc1)N1CC(c2nc(Cc3cccnc3)no2)C1`, the activity % (negative = inhibition) was inactive: 2.92%. `O=C(CCc1nnn2c1CN(C(=O)COc1ccc(F)cc1)CC2)N1CCCC1` was tested, and the activity % (negative = inhibition) was inactive: 0.261%. For `CCN(CC)CC[C@H]1CN(C(=O)C2CC2)CC[C@H]1CC(=O)O`, the activity % (negative = inhibition) was inactive: 41.7% [at 57.5 µM]. In the case of `CCC(C)NC(=O)N1CCn2nnc(CCC(=O)N3CCOCC3)c2C1` (stereo unspecified), the activity % (negative = inhibition) is reported as inactive: 8.93%. With `CNC(=O)N1C[C@@H](CN(C)C)[C@H](NC(=O)c2ccsc2)C1` the activity % (negative = inhibition) was inactive: 0.0852%. In the case of `O=C(Cc1cccc(Cl)c1)NC1CCN(Cc2ccc(-c3ccsc3)cc2)C1` (stereo unspecified), the activity % (negative = inhibition) is reported as inactive: -4.98%. `Cc1cnc(C2CCC2)n1CCNC(=O)c1nccn1C` was tested, and the activity % (negative = inhibition) was inactive: 5.25%. With `CC(C)(Cc1ccc(F)cc1)NC(=O)CC1C(=O)NCCN1Cc1ccoc1` (stereo unspecified) the activity % (negative = inhibition) was inactive: 3.32%. With `CN(C)CC1(O)CCC2(CCN(C(=O)c3cccn3C)CC2)CC1` the activity % (negative = inhibition) was inactive: -1.58%. For `Cc1cccc(OCC(=O)N2CCC[C@H]2c2nc(-c3ccc(F)cc3)n[nH]2)c1`, the activity % (negative = inhibition) was inactive: 1.09%. In the case of `COCC(=O)N[C@H]1C[C@@H](CO)N(Cc2sccc2C)C1`, the activity % (negative = inhibition) is reported as inactive: 8.43%. `CC(C)n1cnnc1C1CCCN1C(=O)Nc1ccccc1` (stereo unspecified) was tested, and the activity % (negative = inhibition) was inactive: 1.7%. `Cn1nc(C2CC2)cc1NC(=O)C1CCCC1` was tested, and the activity % (negative = inhibition) was inactive: -1.49% [at 57.5 µM]. For `O=C1NC2(CCN([S+](=O)([O-])c3ccccc3)C2)Oc2ccccc21` (stereo unspecified), the activity % (negative = inhibition) was inactive: 6.06% [at 57.5 µM]. With `CCn1c(C2CCCNC2)nn(Cc2csc(-c3ccccc3)n2)c1=O` (stereo unspecified) the activity % (negative = inhibition) was inactive: 5.68%. With `Cc1ccc(-n2ccnc2-c2cc3n(n2)CCNC3)cc1N1CCCC1=O` the activity % (negative = inhibition) was inactive: -2.82%. `Fc1ccc(-c2cc(C3CCNCC3)[nH]n2)cc1` was tested, and the activity % (negative = inhibition) was inactive: -3.5%. For `Cc1nnc2n1CCC(N(C)S(=O)(=O)c1cccnc1)CC2` (stereo unspecified), the activity % (negative = inhibition) was inactive: -1.44%. `Nc1nc2c(c(=O)[nH]1)CCN(C(=O)Cc1c[nH]c3ccccc13)C2` was tested, and the activity % (negative = inhibition) was inactive: 11.9%. With `CC(C)c1cc(C(=O)NCc2cccnc2Oc2cccc(C(F)(F)F)c2)n[nH]1` the activity % (negative = inhibition) was inactive: -1.34%. For `Cc1oc(C(O)c2ccccc2)nc1C(=O)Nc1ccncc1` (stereo unspecified), the activity % (negative = inhibition) was inactive: -0.182% [at 57.5 µM]. For `O=c1[nH]c(C2CCN(Cc3ccc(-c4cccnc4)cc3)CC2)nc2ccc(F)cc12`, the activity % (negative = inhibition) was inactive: -1.95%. In the case of `CN(C)c1cc(N2CCCC(NS(C)(=O)=O)C2)ncn1` (stereo unspecified), the activity % (negative = inhibition) is reported as inactive: 2.95%. For `NC(=O)c1ccc(C(F)(F)F)nc1N1CCC(N2CCCC(O)C2)CC1` (stereo unspecified), the activity % (negative = inhibition) was inactive: -1.45%. In the case of `CC(C)c1noc(-c2cn(C3CCN(C(=O)C4(c5ccccc5)CC4)CC3)nn2)n1`, the activity % (negative = inhibition) is reported as inactive: -3.01%. In the case of `COc1ccc(CC(=O)Nc2ccc3n(c2=O)C[C@H]2C[C@@H]3CN(C(=O)c3ccc(-c4ccccc4)cc3)C2)cc1`, the activity % (negative = inhibition) is reported as inactive: 20.5%. With `O=C1NCCCCCCN(C(=O)CCc2ccccc2)[C@H]2CCCC[C@@H]12` the activity % (negative = inhibition) was inactive: 24.6%. `COc1ccc(CCCN2C(=O)O[C@@H]3CN(c4nc(C)cc(C)n4)C[C@@H]32)cc1` was tested, and the activity % (negative = inhibition) was inactive: 34.9%. In the case of `CC(C)(C)n1cnc2cccnc21`, the activity % (negative = inhibition) is reported as inactive: -0.569% [at 77.1 µM].
